PubChem BioAssay AID720505 | Drosophila RNAi Screening Center – 2013
Screen: 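Knock-downs that reduce calcium influx once internal stores are emptied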 (primary screen). Cell system: Drosophila S2R+ cells. Reagent: long dsRNA against Drosophila genes. Conditions: thapsigargin (2 µM) in calcium-free buffer to empty internal stores, then 2 mM calcium added back. Measurement: 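Stores emptied by 2 µM thapsigargin without calcium, then 2 mM calcium re-added; fluo-4 fluorescence followed by FLIPR in 384-well plates, per-well averaged endpoint, raw; two screen passes, some wells retested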. Reading the numbers: calcium signal and retest calcium signal: higher = more calcium entry after store depletion. Rule for the call: 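About 1500 genes called as lowering calcium entry, by varying amounts, judged against per-plate control wells with STIM1 as positive and Rho1 as negative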. Meaning of the calls: active = called as lowering calcium entry; inactive = not called.
The screen tested about 20,000 reagents; shown is a random part of those with a known target gene and a result. In the full data, about 2,100 (10%) are marked active. 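Raw plate signals without normalisation; calls rest on control-based scores that were not deposited; replicate 2 separates called from uncalled poorly.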 Entries without a mark were called inactive. Not given: the amount of reagent, the time to read-out.

| gene knocked down | amplicon | calcium signal, replicate 1 | calcium signal, replicate 2 | retest calcium signal, replicate 1 | retest calcium signal, replicate 2 |
| --- | --- | --- | --- | --- | --- |
| mid | DRSC02977 | 94.5 | 108 | 83 | 95.2 |
| mid | DRSC21493 | 131 | 95.6 | – | – |
| CG5883 | DRSC10552 | 66 (active) | 95.6 | – | – |
| IleRS-m | DRSC10506 | 92.2 | 193 | – | – |
| Chsy | DRSC20175 | 94.1 | 121 | – | – |
| Chsy | DRSC20176 | 90.8 | 116 | 113 | 83.1 |
| CG8064 | DRSC16373 | 183 | 165 | – | – |
| CG11815 | DRSC08209 | 82.8 | 109 | – | – |
| Pex2 | DRSC10770 | 75.2 | 119 | – | – |
| CG6472 | DRSC06989 | 136 | 118 | – | – |
| spt4 | DRSC07696 | 148 | 161 | – | – |
| zip | DRSC04725 | 75.9 | 128 | 108 | 104 |
| zip | DRSC22489 | 119 | 225 | – | – |
| CG15548 | DRSC15086 | 166 | 157 | – | – |
| CG10470 | DRSC02061 | 178 | 76.6 | – | – |
| c11.1 | DRSC18749 | 115 | 108 | – | – |
| Vav | DRSC20384 | 118 | 79.3 | – | – |
| CG13712 | DRSC08321 | 80.6 (active) | 61.2 | – | – |
| CG8097 | DRSC20079 | 87.8 | 125 | – | – |
| CG15390 | DRSC00404 | 214 | 172 | – | – |
| Usp2 | DRSC20590 | 89.8 | 12748 | – | – |
| Usp2 | DRSC20632 | 172 | 118 | – | – |
| Usp2 | DRSC20633 | 127 | 97.2 | – | – |
| CG8031 | DRSC16364 | 108 | 112 | – | – |
| AGO1 | DRSC05912 | 202 | 235 | – | – |
| CG42458 | DRSC10335 | 81.5 | 103 | – | – |
| CG42458 | DRSC23129 | 87.8 | 121 | – | – |
| CG42458 | DRSC23261 | 136 | 111 | – | – |
| Cdc45 | DRSC17747 | 106 | 139 | – | – |
| Cdc45 | DRSC18164 | 73.3 | 152 | – | – |
| yellow-b | DRSC03639 | 70.7 | 95.1 | – | – |
| Vm26Aa | DRSC03472 | 158 | 110 | – | – |
| eag | DRSC19067 | 68.9 | 106 | – | – |
| eag | DRSC20328 | 75.8 | 131 | – | – |
